In the supplement of paper PMC10735217 one finds TEAD-luciferase reporter activity data, which are given here for 26 molecules.

The test system of this assay is HEK293A TEAD-LUC reporter. Briefly: TEAD-luciferase reporter activity (YAP activation), robust Z score vs plate; higher = stronger YAP/TEAD activation. The conditions noted are these: 24 h. A general note: A reporter such as luciferase makes a cellular process visible.

Counter-ions that a name gives are not always drawn. Some of the results follow. Repeats in this data set agree poorly, so a single value says little.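 Human kidney-derived cells stably carry a construct in which eight TEAD-binding elements drive luciferase, measured by luminescence in a drug-repurposing library screen. A hit is any compound whose signal exceeds the plate mean by more than five robust Z scores.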

Consider `CO[C@@H](Cc1ccc(NC(C)=O)cc1)C(=O)O`, for which the TEAD-luciferase reporter activity reads like this: (compound concentration: 200 nM) inactive: -0.881; (compound concentration: 2 uM) inactive: -1.34; (compound concentration: 10 uM) inactive: -0.034.

As to `CN(/N=N/N(C)c1ccccc1)c1ccccc1`, the TEAD-luciferase reporter activity was inactive: -0.736 (compound concentration: 200 nM), inactive: 0.997 (compound concentration: 2 uM) and inactive: 4.7 (compound concentration: 10 uM).

Consider `CC(C)=CCOc1cc(NC(=O)c2ccccn2)ccc1Cl`, for which the TEAD-luciferase reporter activity was inactive: -1 (compound concentration: 200 nM), inactive: -1.76 (compound concentration: 2 uM) and inactive: 0.755 (compound concentration: 10 uM).

`COc1c(C(=O)Nc2cc(C(F)(F)F)ccc2Oc2ccc(Cl)cc2C)ccc2ccccc12`: the TEAD-luciferase reporter activity is inactive: 0.231 (compound concentration: 200 nM), inactive: -0.157 (compound concentration: 2 uM) and inactive: 1.6 (compound concentration: 10 uM).

Turning to `COc1cc2ncnc(Oc3cccc(NC(=O)Nc4cc(C(C)(C)C(F)(F)F)on4)c3)c2cc1OC`, the TEAD-luciferase reporter activity was inactive: 1.94 (compound concentration: 200 nM), inactive: -1.73 (compound concentration: 2 uM) and inactive: 0.84 (compound concentration: 10 uM).

In the case of `COc1ccccc1-c1ccc(CN2CCCCC2C(=O)NCc2ccc3c(c2)OCO3)cc1` (centres undefined), the TEAD-luciferase reporter activity (compound concentration: 200 nM) was active: 7.2 and the TEAD-luciferase reporter activity (compound concentration: 10 uM) is inactive: 1.89.

As for `CO[C@H]1COCC[C@H]1N[C@@H]1CC[C@@](C(=O)N2C[C@@H]3C[C@H]2CN3c2cc(C(F)(F)F)ncn2)(C(C)C)C1`, the TEAD-luciferase reporter activity is inactive: 1.28 (compound concentration: 200 nM), inactive: -0.399 (compound concentration: 2 uM) and inactive: 0.34 (compound concentration: 10 uM).

As to `CCS(=O)(=O)c1ccc(/C=C(\C)c2ccc3c(c2)C(C)(C)CCC3(C)C)cc1` [Etarotene], the TEAD-luciferase reporter activity by setting is: (compound concentration: 200 nM) inactive: -0.249; (compound concentration: 2 uM) inactive: -1.06; (compound concentration: 10 uM) inactive: 2.32.

As for `O=C(Cc1cccs1)N[C@@H]1C(=O)N2C(C(=O)[O-])=C(C[n+]3ccccc3)CS[C@H]12` [Cefaloridine], the TEAD-luciferase reporter activity runs as follows: (compound concentration: 200 nM) inactive: 0.129; (compound concentration: 2 uM) inactive: 2; (compound concentration: 10 uM) inactive: 3.81.

For the molecule `C[C@H]1SC[C@@H](C(=O)N[C@H](Cc2c[nH]cn2)C(=O)N2CCC[C@H]2C(N)=O)NC1=O`, the TEAD-luciferase reporter activity was inactive: -1.12 (compound concentration: 200 nM), inactive: 0.298 (compound concentration: 2 uM) and inactive: 1.59 (compound concentration: 10 uM).

Turning to `CC(C)NC(=O)c1no[n+]([O-])c1C(=O)NC(C)C` [ipramidil], the TEAD-luciferase reporter activity is inactive: -2.75 (compound concentration: 200 nM), inactive: -0.432 (compound concentration: 2 uM) and inactive: 1.6 (compound concentration: 10 uM).

In the case of `Nc1c(C(=O)NCc2ccc([N+](=O)[O-])cc2)ncn1[C@@H]1O[C@H](COP(=O)(O)O)[C@@H](O)[C@H]1O`, the TEAD-luciferase reporter activity was active: 5.51 (compound concentration: 200 nM), inactive: 1.88 (compound concentration: 2 uM) and inactive: -0.974 (compound concentration: 10 uM).

On to `CN(CCOc1ccc(CC(OCC(F)(F)F)C(=O)O)cc1)c1nc2ccccc2o1` (centres undefined), for which the TEAD-luciferase reporter activity runs as follows: (compound concentration: 200 nM) inactive: 0.0382; (compound concentration: 2 uM) inactive: 2.21; (compound concentration: 10 uM) inactive: 2.72.

On to `CC(CC1c2ccccc2CCc2ccccc21)CN(C)C` (centres undefined) [Butriptyline hydrochloride], for which the TEAD-luciferase reporter activity (compound concentration: 200 nM) is inactive: 0.0482, the TEAD-luciferase reporter activity (compound concentration: 2 uM) was inactive: -1.37 and the TEAD-luciferase reporter activity (compound concentration: 10 uM) is inactive: 0.461.

For the molecule `Cc1csc(-c2nnc(Nc3ccc(Oc4ncccc4-c4ccnc(N)n4)cc3)c3ccccc23)c1`, the TEAD-luciferase reporter activity was inactive: -1.52 (compound concentration: 200 nM), inactive: -0.844 (compound concentration: 2 uM) and inactive: -2.04 (compound concentration: 10 uM).

Consider `Cc1cccnc1NS(=O)(=O)c1ccc(/N=N/c2ccc(O)c(C(=O)O)c2)cc1`, for which the TEAD-luciferase reporter activity (compound concentration: 200 nM) was inactive: -0.866, the TEAD-luciferase reporter activity (compound concentration: 2 uM) was inactive: 0.00741 and the TEAD-luciferase reporter activity (compound concentration: 10 uM) is inactive: 1.14.

As for `Nc1nc(O)c2ncn(COC(CO)CO)c2n1` [ganciclovir], the TEAD-luciferase reporter activity by setting is: (compound concentration: 200 nM) inactive: -0.524; (compound concentration: 10 uM) inactive: -1.64.

Regarding `Nc1nc(O)c2ncn(COC(CO)CO)c2n1` [Ganciclovir sodium], for the setting “compound concentration: 2 uM”, the TEAD-luciferase reporter activity was inactive: -1.41.

`COc1ccc(C(=O)c2cn(C(C)C)c3ncnc(N)c23)cc1NC(=O)Nc1ccc(Cl)cc1Cl`: the TEAD-luciferase reporter activity (compound concentration: 200 nM) is inactive: -2.2, the TEAD-luciferase reporter activity (compound concentration: 2 uM) is inactive: -1.58 and the TEAD-luciferase reporter activity (compound concentration: 10 uM) is inactive: 0.371.

For the molecule `COc1cc2ncnc(Nc3cccc(Cl)c3F)c2cc1OC(=O)N1CCN(C)C[C@H]1C`, the TEAD-luciferase reporter activity by setting is: (compound concentration: 200 nM) inactive: -0.34; (compound concentration: 2 uM) inactive: 0.00782; (compound concentration: 10 uM) inactive: -0.44.

Consider `Cc1cc(C)n(CCCCCSc2nc(-c3ccccc3)c(-c3ccccc3)[nH]2)n1`, for which the TEAD-luciferase reporter activity reads like this: (compound concentration: 200 nM) inactive: 1.24; (compound concentration: 2 uM) inactive: -1.16; (compound concentration: 10 uM) inactive: -0.675.

For the molecule `C[C@H](CN(c1ccccc1)S(=O)(=O)Cc1ccccc1)N1CCC(NC(=O)Cc2ccc(C#N)cc2)CC1`, the TEAD-luciferase reporter activity is inactive: -0.874 (compound concentration: 200 nM), inactive: -1.36 (compound concentration: 2 uM) and inactive: 0.244 (compound concentration: 10 uM).

Turning to `COc1ccc2c(c1)CC(C)N(CCc1ccc(N)cc1)CC2` (centres undefined) [Anilopam], the TEAD-luciferase reporter activity was inactive: 0.606 (compound concentration: 200 nM), inactive: -0.397 (compound concentration: 2 uM) and inactive: -0.467 (compound concentration: 10 uM).

As to `C=C[C@@H]1C[C@]1(NC(=O)[C@@H]1C[C@H](Oc2cc(-c3ccccc3)nc3cc(OC)ccc23)CN1C(=O)[C@@H](CC(=O)N1CCCCC1)C(C)(C)C)C(=O)NS(=O)(=O)C1CC1`, the TEAD-luciferase reporter activity runs as follows: (compound concentration: 200 nM) inactive: -0.2; (compound concentration: 2 uM) inactive: 0.15; (compound concentration: 10 uM) inactive: 1.63.

`CC(=O)Nc1ccccc1`: the TEAD-luciferase reporter activity reads like this: (compound concentration: 200 nM) inactive: -0.389; (compound concentration: 2 uM) inactive: -1.8; (compound concentration: 10 uM) inactive: -0.715.

For `Nc1cccc(-n2ccccc2=O)c1`, the TEAD-luciferase reporter activity (compound concentration: 200 nM) is inactive: 2.42, the TEAD-luciferase reporter activity (compound concentration: 2 uM) is inactive: -0.931 and the TEAD-luciferase reporter activity (compound concentration: 10 uM) is inactive: 2.65.
